Experimental data from patent US12495796B2, “Compositions, methods, and applications of a synthetic surfactant” (1283581 B.C. LTD, priority 2019, dated 2025).
Some results were stated once for a whole list of compounds, not compound by compound.

B1: RSN 2: recombinant mature ranaspumin protein without signal peptide, Synthetic Amino Acid Sequence No. 2; main surfactant (protein, listed as Engystomops pustulosus)
chain: LILDGDLLKDKLKLPVIDNLFGKELLDKFQDDVKDKYGVDTKDLKILKTSEDKRFYYVSVDAGDGEKCKFKIRKDVDVPKMVGRKCRKDDDDDDGY
B2: RSN 3: recombinant mature ranaspumin protein without signal peptide, Synthetic Amino Acid Sequence No. 3 (protein, listed as Engystomops pustulosus)
chain: IDPTGLVQILLLEQVVHKIPPGNINLARTGIATQDSDYTASAVPSEARLAIDGNRNSDFNQKSCSHTGGNEPAWWRLELKKKSKISVVVIAIRSDCCMDRFKGAELRIGNSQDATVNPICGKVSAVKGSNYLFCCDGMEGKYISVVIPDRHEFLSLCEVEVYGAKPIEGTHCK
B3: RSN 5: recombinant mature ranaspumin protein without signal peptide, Synthetic Amino Acid Sequence No. 5 (protein, listed as Engystomops pustulosus)
chain: GAPGGAAGPLLVLNILGSVVHETKPPEGVNLALKGIASSDSIASNGSVTGLAAKAIDGIRVSDFFKGHCSLTNGLNNPTWWKVDLKKSYKISSVFVTNRDDCCTERLLHAEIRIGSNPDHNHNPICAEVKTVASSNIGFCCGGMEGRYVSVSVPRKEQLSLCEVEVYGDLKKVLHCA
B4: RSN 1: recombinant mature ranaspumin protein without signal peptide, Synthetic Amino Acid Sequence No. 1 (protein, listed as Engystomops pustulosus)
chain: GGGNIGGGAKLGPEKPATPGIQDLLKSLLSVLNLSPPAIPEDAEAVSYRDAKNGKFRLIKIHLGGELYCHVKQIAGPILALPIVSDVVEVTGKECGKTEDDPLEDFPIP
B5: RSN 4: recombinant mature ranaspumin protein without signal peptide, Synthetic Amino Acid Sequence No. 4 (protein, listed as Engystomops pustulosus)
chain: DRNLALDGRATMSSIWMDPDIRQSFLGVAMNGIDGNTDSVYFHGSCFHTGLDSPAWYRVDLLRTSKISSITITNRGDFGSRTNGAEIRIGDSLANNGNNNPRCALVTSIADGETRTFQCNNMVGRYVNIVLTGKTEFLHLCEVQIFGENLPRSFSCQYSNDGMITLLVSTRFMK

Assay: Denaturing of ranaspumin proteins with increasing temperature, monitored by circular dichromium (CD)
Assay type: physicochemical
Conditions: CD 200-300 nm, 0.25 mg/mL, 20-90° C. in 5° C. steps
Procedure: The secondary structure of ranaspumin proteins can be confirmed with CD to identify if there is a presence of an α-helix, β-sheets or random coils. The CD can also be used to monitor the denaturing of a protein structure by observing the intensity of the bands on the spectra. This experiment uses increasing temperature to determine when ranaspumin proteins start to denature in the secondary structure with the use of a CD spectrum. A 3 mL solution with a concentration of 0.25 mg/mL of RSN 1-6 was diluted from a range of 2.69 mg/mL-0.50 mg/mL stock solution. The Jasco 815 […], with Jasco temperature controller and a water bath attachment was used to analyze the RSN 2 protein structure. The initial temperature was set to 20° C., the wavelength was set to 200-300 nm and the temperature was increased by 5° C. after each measurement and allowing for 60 seconds of stability before recording the next measurement, in a temperature range of 20-90° C. A bank was run for a baseline before a 1.5 mL solution was run through the CD and the spectra were monitored for a change in intensity in the bands.
In the case of B1, the “secondary structure staying intact up to” value is reported as 60-69 °C. For B2, the “secondary structure staying intact up to” value was 60-69 °C. With B3 the “secondary structure staying intact up to” value was 60-69 °C. For B4, the “secondary structure staying intact up to” value was 40-49 °C. In the case of B5, the “secondary structure staying intact up to” value is reported as 40-49 °C.
